Data source: PubChem BioAssay AID504774 (Drosophila RNAi Screening Center, 2011)
The screen tested about 23,000 reagents; this is a random part of those that have a named target and a result. 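Values are quantile-normalised luminescence on an arbitrary scale; higher means more cells surviving MMS.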 Reagents against one gene are numbered here. Further read-outs or replicates are left out here.

Screen: 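Genes required for cells to withstand methyl methanesulphonate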 (primary screen)
System: Drosophila Kc167 cells
Reagents: long dsRNA against Drosophila genes, about 0.25 µg dsRNA per well
Timing: about 6 days: 3 days knock-down, then 3 days with or without MMS
Challenge: methyl methanesulphonate 0.004% (w/v) for 3 days after knock-down
Read-out: 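Viability in wells given MMS, read as ATP luminescence, normalised by quantiles plate by plate and averaged across replicates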
Direction: mean viability with MMS: higher = more surviving cells after MMS

no.	gene knocked down	reagent no.	mean viability with MMS
1	Lhr (Lethal hybrid rescue)	1	3.60e6
2	Usp15-31 (Ubiquitin specific protease 15/31)	1	3.24e6
3	Usp15-31 (Ubiquitin specific protease 15/31)	2	2.92e6
4	lilli (lilliputian)	1	3.86e6
5	lft (lowfat)	1	3.58e6
6	CG9514	1	3.55e6
7	CG9514	2	3.68e6
8	Glys (Glycogen synthase)	1	3.50e6
9	CG15514	1	3.52e6
10	CG30486	1	3.50e6
11	kin17	1	3.36e6
12	CG14805	1	3.49e6
13	Atg5 (Autophagy-related 5)	1	3.48e6
14	eIF2gamma (eukaryotic translation initiation factor 2 subunit gamma)	1	3.27e6
15	eIF2gamma (eukaryotic translation initiation factor 2 subunit gamma)	2	3.51e6
16	CG10822	1	3.48e6
17	eIF4A (eukaryotic translation initiation factor 4A)	1	2.88e6
18	CG6432	1	3.56e6
19	CG13050	1	3.55e6
20	Sou (Souji)	1	3.35e6
21	CG15699 (retired record)	1	3.80e6

Part of the list above, reformatted.
gene knocked down,reagent no.,mean viability with MMS
CG30486,1,3.50e6
kin17,1,3.36e6
CG14805,1,3.49e6
Atg5 (Autophagy-related 5),1,3.48e6

Further reagents follow:
no.	gene knocked down	reagent no.	mean viability with MMS
22	Vsx2 (Visual system homeobox 2)	1	3.76e6
23	Vsx2 (Visual system homeobox 2)	2	3.29e6
24	Vsx2 (Visual system homeobox 2)	3	3.64e6
25	Vsx2 (Visual system homeobox 2)	4	3.64e6
26	Vsx2 (Visual system homeobox 2)	5	3.51e6
27	Vsx2 (Visual system homeobox 2)	6	3.61e6
28	Gr2a (Gustatory receptor 2a)	1	3.60e6
29	CG7744	1	3.47e6
30	NC2alpha (Negative Cofactor 2alpha)	1	3.28e6
31	Ir94g (Ionotropic receptor 94g)	1	3.62e6
32	CG1773	1	3.77e6
33	yps (ypsilon schachtel)	1	3.48e6
34	MFS12 (Major Facilitator Superfamily Transporter 12)	1	3.54e6
35	CG15517	1	3.57e6
36	Mst87F (Male-specific RNA 87F)	1	3.82e6
37	CG14355	1	3.58e6
38	TpnC73F (Troponin C at 73F)	1	3.44e6
39	ry (rosy)	1	3.61e6
40	trr (trithorax-related)	1	3.33e6
41	trr (trithorax-related)	2	3.13e6
42	CG18301	1	3.51e6
43	CG14490	1	3.64e6
44	mRpL48 (mitochondrial ribosomal protein L48)	1	3.45e6
45	Fancm (Fanconi anemia group M helicase)	1	3.52e6
46	CG34248	1	3.51e6
